# Some entries share one result that the patent states for a list of compounds.
# Tested on: FcγRIIa
# Assay: Phosphorylation of FcγRIIa during platelet activation (immunoprecipitation, Western blot with anti-phosphotyrosine)
# Type: cell-based, human
# Conditions: platelets from healthy subjects; thrombin 50 nM, convulxin 10 ng/ml, ADP 25 μM, PAF 100 nM
# Procedure: Whole platelet lysates were prepared by the addition of an equal volume of 2× lysis buffer (2% Nonidet P-40 1, 300 mM NaCl, 50 mM Tris, 2 mM Na3VO4, halt protease and phosphatase inhibitor cocktail [Pierce Biochemicals], ph 7.3) in an ice bath for 30 min. Lysates to be used for immunoprecipitation were pre-cleared of antibodies by the addition of protein G Dynabeads (Invitrogen, Carlsbad, Calif.).
# Immunoprecipitation was performed overnight at 4° C. with the use of goat anti-CD32A/C (Santa Cruz Biotechnology, Santa Cruz, Calif.) or a mouse anti-phosphotyrosine conjugated with magnetic beads (4G10, Millipore, Billerica, Mass.). When anti-CD32A/C was used, antigen-antibody complexes were isolated with the use of protein G-coated magnetic beads (Dynabeads, Invitrogen, Carlsbad, Calif.) for 3 hours. Beads with antigen-antibody complexes were washed once with 0.5× lysis buffer and twice with phosphate buffered saline. Proteins were separated from beads in sample buffer before electrophoresis and wet transfer to Immobilon FL membranes (Millipore, Billerica, Mass.). […] Bands were detected with the use of use of a Li-Cor Odyssey Infrared Imaging system (Li-Cor Biosciences, Lincoln, Nebr.) or chemiluminescence (Amersham/General Electric Healthcare, Piscataway, N.J.).
substance,measurement,value
platelet activating factor [PAF],time after exposure at which phosphorylation of FcγRIIa was greatest,1 to 2 min
thrombin,time after exposure at which phosphorylation of FcγRIIa was greatest,1 to 2 min

# — patent US11747335B2, “Compositions and methods for assaying platelet reactivity and treatment selection” (University of Vermont And State Agriculture College, priority 2012, dated 2023)
